Reference: patent US9938245B2 (THE TRUSTEES OF COLUMBIA UNIVERSITY IN THE CITY OF NEW YORK, priority 2014, dated 2018)
For part of these data: For at least one compound, name, drawing or mass did not settle the structure. Some of these results come from one statement about several compounds together.

Legend:
[1] = Stability in mouse plasma; format: in vitro ADME; details: 500 ng/mL, 37° C.
[2] = system: siGPX4-induced cell death; assay: Suppression of siGPX4-induced cell death by ferroptosis inhibitors; format: cell-based; details: 10 μM U0126, 100 μM Vit. E, 100 μM DFOM, 50 μM ZIL
[3] = system: HT-1080 cells; assay: Metabolite profiling (LC-MS/MS) upon erastin treatment; format: cell-based, human
[4] = system: cellular GSH; assay: GSH depletion assay; format: cell-based
[5] = system: GFP-ALOX5; assay: GFP-ALOX5 translocation assay; format: cell-based, human
[6] = system: HT-1080 cells, U-2 OS cells; assay: Cell viability (alamar blue, 24 hours) with modulators of erastin lethality; format: cell-based, human; details: in the presence of erastin
[7] = system: lipid peroxides; assay: Lipid peroxide detection using BODIPY-C11; format: cell-based; details: BJeLR and other BJ-derived cells

SMILES: CC(C)Oc1ccc(C(=O)Cn2ccnc2)cc1-n1c(CN2CCN(C(=O)COc3ccc(Cl)cc3)CC2)nc2ccccc2c1=O [IKE, imidazole ketone erastin]
- time remained stable in mouse plasma [1]: ≥ 120 min

SMILES: CC(=O)N(O)CCCCCNC(=O)CCC(=O)N(O)CCCCCNC(=O)CCC(=O)N(O)CCCCCN [DFOM, Deferoxamine]
- rescue of siGPX4-induced cell death [2]: rescued

SMILES: CC(C)Oc1ccc(C(=O)CN2CCNCC2)cc1-n1c(CN2CCN(C(=O)COc3ccc(Cl)cc3)CC2)nc2ccccc2c1=O [PKE, piperazine ketone erastin]
- time remained stable in mouse plasma [1]: ≥ 120 min

SMILES: CCOc1ccccc1-n1c(C(C)N2CCN(C(=O)COc3ccc(Cl)cc3)CC2)nc2ccccc2c1=O (stereo not drawn) [Erastin]
- GSH and GSSG upon erastin treatment (in words) [3]: depleted significantly
- GSH depletion in the 4 BJ cell lines ([4]; erastin, 12 hours): depleted of GSH to a similar low level
- GSH level (Ellman's reagent) ([4]; three cell lines (HT-1080, U-2 OS, BJeLR)): dose-dependent, GSH-depleting effect
- translocation of GFP-ALOX5 to the nuclear membrane [5]: only in BJeLR cells (harboring HRAS^G12V) was GFP-ALOX5 translocated to the nuclear membrane
- sensitivity to TBHP-induced cell death [6]: made cells more sensitive to TBHP-induced cell death
- generation of lipid peroxides (BODIPY-C11) [7]: selectively generated lipid peroxides in BJeLR cells
